# From PubChem BioAssay (EPA / NIEHS)
# For some assays here: Most of the hits are listed elsewhere, so they are rarer here than in the full data. The entries are a selection whose mix differs from that of the whole data set. Inconclusive results are not listed. Calls of active or inactive are those of the source. Rule for the calls, unless noted: active = hit-call score of the fitted dose curve at least 0.9, where 1 is the maximum; inactive = score below 0.9.
# Assays:
# [1] = CCTE_Shafer_MEA_dev_inter_network_spike_interval_mean: CCTE's Neural Network Formation Assay for Mean Inter-network Spike Interval, Shafer Lab (AID 2284047)
# Method in brief: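 Rat cortical cultures, 1.5 x 10^5 cells/well on 48-well MEA plates; continuous exposure days 0–12, medium and compound refreshed DIV 5, 9. Mean time between consecutive network-spike peaks; AUC across DIV 5/7/9/12; DMSO baseline, negative fitting direction.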
# [2] = CCTE_Shafer_MEA_dev_mutual_information_norm: CCTE's Neural Network Formation Assay for Mutual Information Normalization, Shafer Lab (AID 2284091)
# Method in brief: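 Rat cortical cultures, 48-well MEA, continuous exposure DIV 0–12 with full media/compound change DIV 5 and 9. Readout: inter-electrode mutual information, AxIS adaptive spike detection; AUC across DIV 5/7/9/12 recordings; DMSO baseline, negative fitting direction.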
# [3] = CCTE_Shafer_MEA_dev_network_spike_number: CCTE's Neural Network Formation Assay for Number of Network Spikes, Shafer Lab (AID 2284048);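 note: synchronized bursts across electrodes counted on days 5 7 9 12 and integrated as AUC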
# Method in brief: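 Primary rat cortical neurons were seeded at 1.5 x 10^5 cells/well on PEI-coated 16-electrode MEA wells with laminin, exposed from plating day 0, compound renewed at DIV 5 and 9. Network spikes were recorded on days 5, 7, 9, 12 and summarized as trapezoidal AUC versus DMSO.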
# [4] = CCTE_Mundy_HCI_Cortical_NOG_NeuriteLength: CCTE's Neurite Outgrowth Assay in rat cortical cells for Neurite Length, Mundy Lab (AID 2284213);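 note: neurites imaged about 48 to 50 h after chemical exposure began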
# Method in brief: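 Neurite length was read by high-content imaging of βIII-tubulin-labelled neurites in rat primary cortical cultures. Activity was fitted relative to DMSO.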
# [5] = CCTE_Mundy_HCI_Cortical_NOG_NeuronCount: CCTE's Neurite Outgrowth Assay in rat cortical cells for Neuron Count, Mundy Lab (AID 2284236; active = hit-call score of the fitted dose curve at least 0.9, where 1 is the maximum;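 note: neurons counted by imaging betaIII-tubulin and Hoechst stained cortical cells; cells exposed to compound for about 48 hours before fixation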)
# Method in brief: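 Read-out: neuron number by high-content imaging of betaIII-tubulin (Alexa Fluor-488) and Hoechst-labelled rat primary cortical cells.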
# [6] = read-out: Collagen I, COL1A1 (gene 1277); test: BSK_MyoF_CollagenI: BioMAP Diversity Plus: MyoF Assay for Collagen I Biomarker Activity (AID 2284238); conditions: primary human lung fibroblasts
# Method in brief: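 Lung fibroblasts (human primary) dosed, 24 h; Collagen I by ELISA; positive-direction fit vs DMSO control. Parallel SRB total-protein staining (0.1% SRB, 10% TCA fixation, 560 nm) flags overt cytotoxicity.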
# [7] = read-out: Interleukin 2 (IL2), IL2 (gene 3558); test: BSK_BT_xIL2: BioMAP Diversity Plus: BT Assay for Interleukin 2 (IL2) Biomarker Activity (AID 2284245); conditions: primary human B cells with PBMC
# Method in brief: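 Secreted interleukin-2 from human B cell/PBMC co-cultures, measured 24 h post-dosing by Luminex multiplex immunoassay. Upward-direction curve fitting against DMSO baseline.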
# [8] = read-out: Interleukin-8 (IL8), CXCL8 (gene 3576); test: BSK_MyoF_IL8: BioMAP Diversity Plus: MyoF Assay for Interleukin-8 (IL8) Biomarker Activity (AID 2284261); conditions: primary human lung fibroblasts
# Method in brief: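 IL-8 levels were measured by ELISA in human lung fibroblasts harvested 24 h after compound addition. Responses were analysed as gain of signal over the DMSO baseline.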
# Decorin, DCN (gene 1634) = test: BSK_MyoF_Decorin: BioMAP Diversity Plus: MyoF Assay for Decorin Biomarker Activity (AID 2284265); conditions: primary human lung fibroblasts
# Method in brief: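 Compound is added to lung fibroblast cultures; cells incubate 24 h; decorin is then measured by ELISA; the response is analysed upward against DMSO controls.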
# [9] = read-out: TIMP metallopeptidase inhibitor 1 (TIMP1), TIMP1 (gene 7076); test: BSK_MyoF_TIMP1: BioMAP Diversity Plus: MyoF Assay for TIMP metallopeptidase inhibitor 1 (TIMP1) Biomarker Activity (AID 2284269); conditions: primary human lung fibroblasts
# Method in brief: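 Fibroblasts from human lung are dosed with chemical, cultured 24 h, and assayed for TIMP-1 by ELISA. Increases over the DMSO baseline are scored, with SRB total-protein staining run in parallel for cytotoxicity.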
# [10] = read-out: Matrix Metallopeptidase 9 (MMP9), MMP9 (gene 4318); test: BSK_BE3C_MMP9: BioMAP Diversity Plus: BE3C Assay for Matrix Metallopeptidase 9 (MMP9) Biomarker Activity (AID 2284283); conditions: primary human bronchial epithelial cells
# Method in brief: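 BE3C, human bronchial epithelial primary cells; 24 h post-dose; MMP-9 by ELISA; positive fit vs DMSO; SRB (0.1%, TCA-fixed, 560 nm) parallel cytotox.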
# [11] = read-out: TIMP metallopeptidase inhibitor 2 (TIMP2), TIMP2 (gene 7077); test: BSK_hDFCGF_TIMP2: BioMAP Diversity Plus: hDFCGF Assay for TIMP metallopeptidase inhibitor 2 (TIMP2) Biomarker Activity (AID 2284289); conditions: primary human foreskin fibroblasts
# Method in brief: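 Primary human foreskin fibroblasts in the hDFCGF system, dosed for 24 h; TIMP-2 level measured by ELISA, fitted in the positive direction against DMSO; cytotoxicity checked in parallel by sulforhodamine B total protein staining.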
# CD69, CD69 (gene 969) = test: BSK_LPS_CD69: BioMAP Diversity Plus: LPS Assay for CD69 Biomarker Activity (AID 2284303); conditions: primary human HUVEC with PBMC
# Method in brief: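 Human umbilical vein endothelial cells co-cultured with PBMC under LPS stimulation, chemical exposure 24 h; cell-surface CD69 measured by ELISA and fitted in the positive direction versus DMSO.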
# [12] = CCTE_Deisenroth_DEVTOX-GLR_legacy_CellCount: (Legacy) Viability Assessment in CCTE's DevTox GLR-Endo Assay, Deisenroth Lab (AID 2284331); conditions: actives raise or lower the signal
# Method in brief: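 Viability is taken from imaged nuclei counts in fixed RUES2-GLR cultures after 48 h of differentiation under two 24 h-spaced chemical exposures, 10 concentrations from 1 nM to 200 uM, gain or loss versus DMSO baseline.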
# [13] = tested on: SRY-box transcription factor 17 (SOX17) Protein Expression, Deisenroth Lab, SOX17 (gene 64321); test: CCTE_Deisenroth_DEVTOX-GLR_legacy_Sox17: (Legacy) CCTE's DevTox GLR-Endo Assay Evaluation of SRY-box transcription factor 17 (SOX17) Protein Expression, Deisenroth Lab (AID 2284341); conditions: actives raise or lower the signal
# Method in brief: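 Endoderm-differentiation readout in RUES2-GLR human pluripotent cells at 48 h, concentrations spanning 1 nM - 200 uM. Sox17-positive cells divided by total cell count; gain or loss relative to DMSO solvent control, n=4 experimental replicates.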
compound,measurement,setting,value
C[C@H](CS)C(=O)N1CCC[C@H]1C(=O)O,outcome,[1],inactive
same,outcome,[2],inactive
N[C@@H](CCC(=O)O)C(=O)O,outcome,[3],inactive
O=C1CC2(CCCC2)CC(=O)N1CCCCN1CCN(c2ncccn2)CC1,AC50,[4],active: 11 µM
CCCN(CCC)C(=O)SCC,outcome,[5],inactive
CC(=O)CCC=C(C)CCC=C(C)C,outcome,[6],inactive
O=C(Nc1ccccc1SSc1ccccc1NC(=O)c1ccccc1)c1ccccc1,AC50,[7],active: 10.7 µM
O=C(Cl)c1cc(C(=O)Cl)cc(C(=O)Cl)c1,outcome,[8],inactive
C=C(C)C(=O)OCCC(F)(F)C(F)(F)C(F)(F)C(F)(F)C(F)(F)C(F)(F)F,outcome,[8],inactive
same,outcome,"Decorin, DCN (gene 1634)",inactive
C=CC(=O)OCC(C)OCC(C)OCC(C)OC(=O)C=C (configuration not stated),AC50,[9],active: 33 µM
OC1OC[C@@H](O)[C@H](O)[C@H]1O (some centres not stated),outcome,[10],inactive
CCCC(C)C(=O)OCC (configuration not stated),outcome,[11],inactive
c1ccc(OCCOc2ccccc2)cc1,outcome,"CD69, CD69 (gene 969)",inactive
CC1=C(/C=C/C(C)=C/C=C/C(C)=C\C(=O)O)C(C)(C)CCC1,AC50,[12],active: 11 µM
CC(C)Cc1ccc(C(C)C(=O)O)cc1 (configuration not stated),outcome,[13],inactive
COc1ccc2[nH]c([S@@](=O)Cc3ncc(C)c(OC)c3C)nc2c1,AC50,[13],active: 33.8 µM
